These are yes or no findings as the source states them, for the method shown. For some assays here: In cells and extracts the contact can be indirect. Some results given as binding are weak or reduced against the parent protein; the word gives no strength. For some assays here: Tags and fused reporters may be left off the sequences shown.
T1: GST-RGL2 (Arabidopsis, UniProt Q8GXW1 1-547)
T1 construct: RGL2 of Arabidopsis; coding region cloned into pGEX-4T-1; source: E. coli Rosetta (DE3), purified (Glutathione Sepharose beads); not shown: GST, N-terminal, kept
T1 sequence (looked up): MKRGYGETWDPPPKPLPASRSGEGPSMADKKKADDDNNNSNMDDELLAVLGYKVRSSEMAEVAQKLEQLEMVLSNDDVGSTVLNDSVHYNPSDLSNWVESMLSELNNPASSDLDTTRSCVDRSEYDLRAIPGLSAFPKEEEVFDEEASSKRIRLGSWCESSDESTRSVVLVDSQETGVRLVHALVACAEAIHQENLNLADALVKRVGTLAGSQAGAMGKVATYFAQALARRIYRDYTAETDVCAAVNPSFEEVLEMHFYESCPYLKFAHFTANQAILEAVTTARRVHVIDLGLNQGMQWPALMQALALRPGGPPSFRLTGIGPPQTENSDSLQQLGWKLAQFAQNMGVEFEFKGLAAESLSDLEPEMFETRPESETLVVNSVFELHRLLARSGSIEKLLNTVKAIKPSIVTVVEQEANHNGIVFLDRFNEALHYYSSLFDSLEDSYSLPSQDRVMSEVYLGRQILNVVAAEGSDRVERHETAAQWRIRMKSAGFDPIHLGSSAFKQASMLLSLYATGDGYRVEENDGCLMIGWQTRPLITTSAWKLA

Sequences of proteins named here, by UniProt entry; tags and fusion partners are left off. A change or cut given only in a name is not applied to a line headed by its entry.
UniProt P06774: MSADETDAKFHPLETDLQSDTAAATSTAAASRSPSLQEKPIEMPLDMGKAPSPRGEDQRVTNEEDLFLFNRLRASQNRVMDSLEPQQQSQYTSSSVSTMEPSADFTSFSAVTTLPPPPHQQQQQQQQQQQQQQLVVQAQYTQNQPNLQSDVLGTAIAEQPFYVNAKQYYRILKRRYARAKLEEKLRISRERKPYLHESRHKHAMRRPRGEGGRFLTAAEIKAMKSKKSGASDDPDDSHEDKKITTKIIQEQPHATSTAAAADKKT

T2: RGL2-cEYFP (Arabidopsis) (UniProt Q8GXW1)
T2 sequence: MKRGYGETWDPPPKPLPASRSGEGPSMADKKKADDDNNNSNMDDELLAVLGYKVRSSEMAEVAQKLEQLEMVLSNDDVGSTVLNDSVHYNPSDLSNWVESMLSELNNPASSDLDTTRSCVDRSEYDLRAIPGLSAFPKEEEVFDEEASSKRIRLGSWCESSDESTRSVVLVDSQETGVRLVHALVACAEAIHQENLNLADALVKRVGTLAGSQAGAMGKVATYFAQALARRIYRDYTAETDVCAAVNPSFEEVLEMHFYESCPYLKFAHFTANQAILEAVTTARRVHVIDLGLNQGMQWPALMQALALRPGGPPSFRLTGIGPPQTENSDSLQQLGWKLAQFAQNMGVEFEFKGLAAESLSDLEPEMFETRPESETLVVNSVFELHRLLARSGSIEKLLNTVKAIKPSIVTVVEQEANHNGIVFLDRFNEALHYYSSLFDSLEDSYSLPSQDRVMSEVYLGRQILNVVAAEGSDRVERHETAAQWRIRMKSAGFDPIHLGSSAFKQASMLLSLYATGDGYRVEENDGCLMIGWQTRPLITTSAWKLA


What was measured:
[1] = target: T1, GST-RGL2; test: pull-down; protein-DNA affinity pull-down: 1 ug each of His-NF-YC9, His-Yeast NF-YA and His-Yeast NF-YB pre-incubated with DNA fragments (100 mM phosphate, 150 mM NaCl, 1 mM EDTA, pH 7.5, 4 °C, 4 h), then mixed with GST or GST-RGL2 on Glutathione Sepharose beads for 4 h; DNA by qPCR, proteins by anti-His or anti-GST; both purified
[2] = target: T2, RGL2-cEYFP (Arabidopsis); test: split reporter; BiFC of NF-YC9-nEYFP and RGL2-cEYFP in Arabidopsis mesophyll protoplasts, 12 h after PEG-mediated transformation, confocal microscopy

Row | binding [1] | binding [2] | Molecule
1 | binds |  | NF-YA core/NF-YB core/NF-YC9 complex (from UniProt P06774 158-214; P13434 35-127; Q8L4B2 1-231)
2 |  | binds | His-NF-YC9 (natural protein, Arabidopsis, UniProt Q8L4B2 1-231, looked up, NF-YC9 of Arabidopsis; coding region cloned into pQE30; source: E. coli Rosetta (DE3), purified (Ni-NTA agarose); not shown: His, N-terminal, kept) MDQQDHGQSGAMNYGTNPYQTNPMSTTAATVAGGAAQPGQLAFHQIHQQQQQQQLAQQLQAFWENQFKEIEKTTDFKNHSLPLARIKKIMKADEDVRMISAEAPVVFARACEMFILELTLRSWNHTEENKRRTLQKNDIAAAVTRTDIFDFLVDIVPREDLRDEVLGSIPRGTVPEAAAAGYPYGYLPAGTAPIGNPGMVMGNPGGAYPPNPYMGQPMWQQQAPDQPDQEN

— paper PMC5027291, “The NF-YC–RGL2 module integrates GA and ABA signalling to regulate seed germination in Arabidopsis” (Nature Communications, 2016)
